# Assay results reported in ChEMBL document CHEMBL2218924, “A broad activity screen in support of a chemogenomic map for kinase signalling research and drug discovery” (Biochem J, 2013).
# Sequences of proteins named here, by UniProt entry; tags and fusion partners are left off. A change or cut given only in a name is not applied to a line headed by its entry.
# UniProt Q9HC98: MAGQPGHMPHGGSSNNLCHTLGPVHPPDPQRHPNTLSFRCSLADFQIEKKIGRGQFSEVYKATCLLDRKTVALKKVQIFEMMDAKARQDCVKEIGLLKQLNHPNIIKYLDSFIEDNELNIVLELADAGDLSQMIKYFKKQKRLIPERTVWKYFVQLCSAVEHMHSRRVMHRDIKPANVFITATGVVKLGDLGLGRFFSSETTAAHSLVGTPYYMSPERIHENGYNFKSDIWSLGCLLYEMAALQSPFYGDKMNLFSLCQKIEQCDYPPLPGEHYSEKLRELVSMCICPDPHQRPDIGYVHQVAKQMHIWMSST
# UniProt Q13177, whole entry: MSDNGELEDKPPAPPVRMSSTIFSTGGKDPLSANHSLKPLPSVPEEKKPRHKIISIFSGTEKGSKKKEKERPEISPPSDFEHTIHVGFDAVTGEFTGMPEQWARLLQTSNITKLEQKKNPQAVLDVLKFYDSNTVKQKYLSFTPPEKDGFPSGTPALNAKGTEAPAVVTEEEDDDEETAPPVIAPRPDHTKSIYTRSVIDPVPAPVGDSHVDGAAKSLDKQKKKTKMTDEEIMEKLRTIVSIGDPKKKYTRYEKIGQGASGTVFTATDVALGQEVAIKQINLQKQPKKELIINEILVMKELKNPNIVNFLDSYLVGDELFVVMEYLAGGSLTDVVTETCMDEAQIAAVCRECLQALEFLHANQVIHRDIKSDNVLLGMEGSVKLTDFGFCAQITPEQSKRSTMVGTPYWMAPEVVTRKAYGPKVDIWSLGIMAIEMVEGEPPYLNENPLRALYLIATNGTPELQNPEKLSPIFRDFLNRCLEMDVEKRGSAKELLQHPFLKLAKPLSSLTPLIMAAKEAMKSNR
# UniProt O96013: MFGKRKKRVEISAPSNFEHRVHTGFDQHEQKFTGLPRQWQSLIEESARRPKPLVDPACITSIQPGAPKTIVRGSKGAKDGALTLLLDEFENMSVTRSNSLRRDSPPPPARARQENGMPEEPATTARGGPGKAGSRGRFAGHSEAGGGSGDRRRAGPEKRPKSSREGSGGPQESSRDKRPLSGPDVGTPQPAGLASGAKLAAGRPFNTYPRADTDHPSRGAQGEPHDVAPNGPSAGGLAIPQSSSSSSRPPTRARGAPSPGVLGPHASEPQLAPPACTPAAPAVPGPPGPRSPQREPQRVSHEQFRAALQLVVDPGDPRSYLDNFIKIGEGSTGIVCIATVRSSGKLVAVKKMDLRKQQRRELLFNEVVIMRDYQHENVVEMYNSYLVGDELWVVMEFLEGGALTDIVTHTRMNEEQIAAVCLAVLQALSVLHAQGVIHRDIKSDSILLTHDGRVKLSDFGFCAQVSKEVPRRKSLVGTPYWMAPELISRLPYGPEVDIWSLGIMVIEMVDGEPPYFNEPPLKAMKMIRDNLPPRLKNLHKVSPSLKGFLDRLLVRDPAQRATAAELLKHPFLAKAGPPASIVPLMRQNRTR
# UniProt Q96RG2: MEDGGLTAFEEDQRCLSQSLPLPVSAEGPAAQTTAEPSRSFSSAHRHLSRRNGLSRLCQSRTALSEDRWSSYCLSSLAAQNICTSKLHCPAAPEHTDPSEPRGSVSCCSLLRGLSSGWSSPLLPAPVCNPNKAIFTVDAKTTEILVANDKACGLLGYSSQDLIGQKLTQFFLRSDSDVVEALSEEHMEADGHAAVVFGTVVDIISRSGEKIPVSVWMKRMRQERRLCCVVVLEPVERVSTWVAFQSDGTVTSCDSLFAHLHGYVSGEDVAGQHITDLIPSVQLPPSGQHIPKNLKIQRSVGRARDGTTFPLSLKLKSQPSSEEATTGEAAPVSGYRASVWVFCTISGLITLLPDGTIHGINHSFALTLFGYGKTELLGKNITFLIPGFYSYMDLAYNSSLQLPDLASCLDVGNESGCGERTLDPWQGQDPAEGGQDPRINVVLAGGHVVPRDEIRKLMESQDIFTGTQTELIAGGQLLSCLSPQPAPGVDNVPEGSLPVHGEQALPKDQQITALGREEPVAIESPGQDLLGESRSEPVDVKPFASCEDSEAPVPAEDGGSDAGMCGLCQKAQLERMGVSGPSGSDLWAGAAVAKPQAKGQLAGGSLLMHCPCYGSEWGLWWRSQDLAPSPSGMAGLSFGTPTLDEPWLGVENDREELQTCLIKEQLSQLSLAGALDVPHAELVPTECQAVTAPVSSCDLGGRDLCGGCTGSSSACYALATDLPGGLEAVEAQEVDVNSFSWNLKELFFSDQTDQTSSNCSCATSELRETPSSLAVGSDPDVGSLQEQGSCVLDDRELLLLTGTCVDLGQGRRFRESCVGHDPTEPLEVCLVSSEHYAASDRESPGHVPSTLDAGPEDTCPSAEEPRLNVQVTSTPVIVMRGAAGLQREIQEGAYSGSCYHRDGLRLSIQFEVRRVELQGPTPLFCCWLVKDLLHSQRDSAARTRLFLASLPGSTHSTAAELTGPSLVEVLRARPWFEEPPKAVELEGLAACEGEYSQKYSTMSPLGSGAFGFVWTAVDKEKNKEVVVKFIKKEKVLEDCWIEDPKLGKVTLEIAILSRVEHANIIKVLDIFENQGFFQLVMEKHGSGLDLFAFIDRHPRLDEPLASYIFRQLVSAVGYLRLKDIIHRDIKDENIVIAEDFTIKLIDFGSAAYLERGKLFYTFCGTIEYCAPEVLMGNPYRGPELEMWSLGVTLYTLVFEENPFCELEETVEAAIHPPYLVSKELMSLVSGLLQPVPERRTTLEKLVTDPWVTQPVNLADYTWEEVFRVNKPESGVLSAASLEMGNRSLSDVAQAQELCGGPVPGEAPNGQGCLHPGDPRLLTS
# UniProt P54619: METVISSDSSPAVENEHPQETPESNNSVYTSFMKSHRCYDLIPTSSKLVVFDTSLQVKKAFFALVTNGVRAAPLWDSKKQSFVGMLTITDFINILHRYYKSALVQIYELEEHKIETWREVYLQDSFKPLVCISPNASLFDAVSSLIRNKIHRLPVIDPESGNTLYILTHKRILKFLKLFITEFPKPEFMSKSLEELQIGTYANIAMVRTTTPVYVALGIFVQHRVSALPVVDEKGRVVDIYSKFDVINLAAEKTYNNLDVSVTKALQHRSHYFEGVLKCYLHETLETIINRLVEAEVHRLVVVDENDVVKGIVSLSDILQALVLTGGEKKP
# UniProt P54646: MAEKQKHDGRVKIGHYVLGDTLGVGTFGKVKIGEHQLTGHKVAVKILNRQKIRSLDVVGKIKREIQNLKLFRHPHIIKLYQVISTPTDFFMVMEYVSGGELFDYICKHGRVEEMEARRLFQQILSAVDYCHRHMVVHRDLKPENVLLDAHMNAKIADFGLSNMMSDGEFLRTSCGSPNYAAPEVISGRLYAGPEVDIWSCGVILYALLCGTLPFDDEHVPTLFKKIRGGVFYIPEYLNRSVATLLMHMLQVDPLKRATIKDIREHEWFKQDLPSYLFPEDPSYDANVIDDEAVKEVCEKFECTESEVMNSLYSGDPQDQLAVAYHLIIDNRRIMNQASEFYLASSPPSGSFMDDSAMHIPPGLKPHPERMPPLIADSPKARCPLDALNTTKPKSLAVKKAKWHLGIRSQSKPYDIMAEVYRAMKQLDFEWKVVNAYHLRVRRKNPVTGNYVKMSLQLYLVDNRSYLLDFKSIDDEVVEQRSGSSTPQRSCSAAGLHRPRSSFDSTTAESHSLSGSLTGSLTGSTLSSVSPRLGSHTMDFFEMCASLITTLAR
# UniProt Q9UGJ0: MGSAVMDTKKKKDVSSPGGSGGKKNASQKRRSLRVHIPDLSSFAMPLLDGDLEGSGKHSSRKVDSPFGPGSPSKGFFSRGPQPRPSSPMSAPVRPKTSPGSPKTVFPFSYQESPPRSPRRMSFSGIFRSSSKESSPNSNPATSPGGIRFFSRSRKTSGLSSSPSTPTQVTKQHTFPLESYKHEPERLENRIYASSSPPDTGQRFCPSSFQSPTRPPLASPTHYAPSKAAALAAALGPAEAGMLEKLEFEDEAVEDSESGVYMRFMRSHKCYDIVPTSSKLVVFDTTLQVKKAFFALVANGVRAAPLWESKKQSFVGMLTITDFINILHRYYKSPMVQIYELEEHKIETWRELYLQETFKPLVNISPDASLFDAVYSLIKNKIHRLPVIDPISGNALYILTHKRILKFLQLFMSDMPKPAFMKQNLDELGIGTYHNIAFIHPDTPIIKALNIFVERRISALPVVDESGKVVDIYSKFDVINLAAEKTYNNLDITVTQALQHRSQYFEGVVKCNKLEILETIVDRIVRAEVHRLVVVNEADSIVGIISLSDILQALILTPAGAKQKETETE
# UniProt Q9UGI9: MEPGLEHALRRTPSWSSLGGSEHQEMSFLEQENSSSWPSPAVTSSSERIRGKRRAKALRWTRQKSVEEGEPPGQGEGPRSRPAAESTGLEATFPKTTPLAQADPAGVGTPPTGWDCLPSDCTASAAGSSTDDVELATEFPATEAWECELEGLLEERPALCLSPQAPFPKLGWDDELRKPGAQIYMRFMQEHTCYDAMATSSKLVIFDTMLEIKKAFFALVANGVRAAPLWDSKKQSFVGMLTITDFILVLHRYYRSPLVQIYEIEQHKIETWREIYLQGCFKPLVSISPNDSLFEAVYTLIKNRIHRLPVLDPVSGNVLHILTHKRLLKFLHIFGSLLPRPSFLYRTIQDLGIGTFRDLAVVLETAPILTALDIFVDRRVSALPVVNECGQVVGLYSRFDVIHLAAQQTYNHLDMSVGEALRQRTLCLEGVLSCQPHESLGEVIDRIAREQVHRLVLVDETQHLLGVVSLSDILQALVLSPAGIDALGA
# UniProt P16234: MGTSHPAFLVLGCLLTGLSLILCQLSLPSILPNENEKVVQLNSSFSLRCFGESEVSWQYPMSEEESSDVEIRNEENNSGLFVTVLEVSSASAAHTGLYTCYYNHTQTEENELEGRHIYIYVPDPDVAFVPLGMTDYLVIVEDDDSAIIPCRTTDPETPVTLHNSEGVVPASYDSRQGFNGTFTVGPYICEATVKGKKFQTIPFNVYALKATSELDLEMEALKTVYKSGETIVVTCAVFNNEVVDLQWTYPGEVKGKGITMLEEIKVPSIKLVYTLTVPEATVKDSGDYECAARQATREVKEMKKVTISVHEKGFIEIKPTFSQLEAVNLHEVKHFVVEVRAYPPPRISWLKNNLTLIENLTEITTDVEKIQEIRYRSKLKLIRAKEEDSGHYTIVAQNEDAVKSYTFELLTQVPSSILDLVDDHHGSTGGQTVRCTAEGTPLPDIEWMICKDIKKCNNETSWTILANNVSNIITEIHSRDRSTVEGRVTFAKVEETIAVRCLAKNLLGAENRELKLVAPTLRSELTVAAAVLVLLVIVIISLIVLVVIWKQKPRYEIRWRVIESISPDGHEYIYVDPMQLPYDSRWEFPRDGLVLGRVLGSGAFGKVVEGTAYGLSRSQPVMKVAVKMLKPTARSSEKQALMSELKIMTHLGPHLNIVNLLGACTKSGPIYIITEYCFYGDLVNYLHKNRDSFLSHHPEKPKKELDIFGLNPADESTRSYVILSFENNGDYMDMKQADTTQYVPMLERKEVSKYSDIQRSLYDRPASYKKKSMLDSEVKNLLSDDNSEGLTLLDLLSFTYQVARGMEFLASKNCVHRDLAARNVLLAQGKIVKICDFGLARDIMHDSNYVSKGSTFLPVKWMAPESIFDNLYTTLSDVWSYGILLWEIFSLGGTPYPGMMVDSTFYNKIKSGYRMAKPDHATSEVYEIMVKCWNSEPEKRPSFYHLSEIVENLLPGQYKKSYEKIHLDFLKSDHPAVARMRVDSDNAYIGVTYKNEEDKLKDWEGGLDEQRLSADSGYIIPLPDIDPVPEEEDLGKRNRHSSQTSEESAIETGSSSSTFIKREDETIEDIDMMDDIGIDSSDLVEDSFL
# UniProt P05771, whole entry, looked up: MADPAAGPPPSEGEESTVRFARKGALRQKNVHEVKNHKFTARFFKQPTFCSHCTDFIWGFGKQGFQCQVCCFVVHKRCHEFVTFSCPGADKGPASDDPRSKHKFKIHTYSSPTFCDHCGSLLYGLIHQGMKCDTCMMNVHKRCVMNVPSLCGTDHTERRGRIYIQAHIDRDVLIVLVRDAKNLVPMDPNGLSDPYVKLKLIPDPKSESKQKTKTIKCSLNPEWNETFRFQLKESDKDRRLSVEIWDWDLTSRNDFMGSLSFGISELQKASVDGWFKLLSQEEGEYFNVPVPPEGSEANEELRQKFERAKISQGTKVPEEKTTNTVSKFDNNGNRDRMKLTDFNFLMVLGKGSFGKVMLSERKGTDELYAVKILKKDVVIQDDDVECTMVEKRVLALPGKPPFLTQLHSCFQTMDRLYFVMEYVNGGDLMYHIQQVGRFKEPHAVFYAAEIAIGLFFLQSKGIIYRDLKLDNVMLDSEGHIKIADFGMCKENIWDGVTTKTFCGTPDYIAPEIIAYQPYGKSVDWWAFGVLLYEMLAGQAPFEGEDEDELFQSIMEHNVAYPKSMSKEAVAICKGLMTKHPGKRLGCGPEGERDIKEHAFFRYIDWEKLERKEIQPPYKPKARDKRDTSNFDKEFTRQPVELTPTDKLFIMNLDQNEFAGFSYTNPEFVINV
# For part of these data: Most of the strong results are listed elsewhere, so they are rarer here than in the full data. No rule for the calls is given here. The list shows a part of the results, in another mix than the full data.
# Columns and labels:
# [1] = molecular target: Serine/threonine-protein kinase mTOR (Homo sapiens) (UniProt P42345); details: at 1 µM
# [2] = molecular target: Serine/threonine-protein kinase mTOR (Homo sapiens) (UniProt P42345); details: at 10 µM
# [3] = molecular target: Ribosomal protein S6 kinase beta-1 (Homo sapiens) (UniProt P23443); details: at 1 µM
# [4] = molecular target: Ribosomal protein S6 kinase beta-1 (Homo sapiens) (UniProt P23443); details: at 10 µM
# [5] = molecular target: Serine/threonine-protein kinase Nek6 (Homo sapiens) (UniProt Q9HC98); details: at 1 µM
# [6] = molecular target: Serine/threonine-protein kinase Nek6 (Homo sapiens) (UniProt Q9HC98); details: at 10 µM
# [7] = molecular target: Serine/threonine-protein kinase Nek7 (Homo sapiens) (UniProt Q8TDX7); details: at 1 µM
# [8] = molecular target: Serine/threonine-protein kinase Nek7 (Homo sapiens) (UniProt Q8TDX7); details: at 10 µM
# [9] = molecular target: Serine/threonine-protein kinase NLK (Homo sapiens) (UniProt Q9UBE8); details: at 1 µM
# [10] = molecular target: Serine/threonine-protein kinase NLK (Homo sapiens) (UniProt Q9UBE8); details: at 10 µM
# [11] = molecular target: Serine/threonine-protein kinase PAK 2 (Homo sapiens) (UniProt Q13177); details: at 1 µM
# [12] = molecular target: Serine/threonine-protein kinase PAK 2 (Homo sapiens) (UniProt Q13177); details: at 10 µM
# [13] = molecular target: Serine/threonine-protein kinase PAK 4 (Homo sapiens) (UniProt O96013); details: at 1 µM
# [14] = molecular target: Serine/threonine-protein kinase PAK 4 (Homo sapiens) (UniProt O96013); details: at 10 µM
# [15] = molecular target: Serine/threonine-protein kinase PAK 5 (Homo sapiens) (UniProt Q9P286); details: at 1 µM
# [16] = molecular target: Serine/threonine-protein kinase PAK 5 (Homo sapiens) (UniProt Q9P286); details: at 10 µM
# [17] = molecular target: Serine/threonine-protein kinase PAK 6 (Homo sapiens) (UniProt Q9NQU5); details: at 1 µM
# [18] = molecular target: Serine/threonine-protein kinase PAK 6 (Homo sapiens) (UniProt Q9NQU5); details: at 10 µM
# [19] = molecular target: PAS domain-containing serine/threonine-protein kinase (Homo sapiens) (UniProt Q96RG2); details: at 1 µM
# [20] = molecular target: PAS domain-containing serine/threonine-protein kinase (Homo sapiens) (UniProt Q96RG2); details: at 10 µM
# [21] = molecular target: Activated CDC42 kinase 1 (Homo sapiens) (UniProt Q07912); details: at 1 µM
# [22] = molecular target: Activated CDC42 kinase 1 (Homo sapiens) (UniProt Q07912); details: at 10 µM
# [23] = molecular target: ALK tyrosine kinase receptor (Homo sapiens) (UniProt Q9UM73); details: at 1 µM
# [24] = molecular target: ALK tyrosine kinase receptor (Homo sapiens) (UniProt Q9UM73); details: at 10 µM
# [25] = molecular target: Activin receptor type-1B (Homo sapiens) (UniProt P36896); details: at 1 µM
# [26] = molecular target: Activin receptor type-1B (Homo sapiens) (UniProt P36896); details: at 10 µM
# [27] = molecular target: T1, AMP-activated protein kinase (AMPK) alpha-1/beta-1/gamma-1 (Homo sapiens) (UniProt P54619+Q9Y478+Q13131); details: at 1 µM
# [28] = molecular target: T1, AMP-activated protein kinase (AMPK) alpha-1/beta-1/gamma-1 (Homo sapiens); details: at 10 µM
# [29] = molecular target: T2, AMP-activated protein kinase, AMPK (Homo sapiens) (UniProt P54646+O43741+P54619+Q9UGJ0+Q9Y478+Q13131+Q9UGI9); details: at 1 µM
# [30] = molecular target: T2, AMP-activated protein kinase, AMPK (Homo sapiens); details: at 10 µM
# [31] = molecular target: NUAK family SNF1-like kinase 1 (Homo sapiens) (UniProt O60285); details: at 1 µM
# [32] = molecular target: NUAK family SNF1-like kinase 1 (Homo sapiens) (UniProt O60285); details: at 10 µM
# [33] = molecular target: Mitogen-activated protein kinase kinase kinase 5 (Homo sapiens) (UniProt Q99683); details: at 1 µM
# [34] = molecular target: Platelet-derived growth factor receptor alpha (Homo sapiens) (UniProt P16234); details: at 1 µM
# [35] = molecular target: Platelet-derived growth factor receptor alpha (Homo sapiens) (UniProt P16234); details: at 10 µM
# [36] = molecular target: Platelet-derived growth factor receptor beta (Homo sapiens) (UniProt P09619); details: at 1 µM
# [37] = molecular target: Platelet-derived growth factor receptor beta (Homo sapiens) (UniProt P09619); details: at 10 µM
# [38] = molecular target: 3-phosphoinositide-dependent protein kinase 1 (Homo sapiens) (UniProt O15530); details: at 1 µM
# [39] = molecular target: 3-phosphoinositide-dependent protein kinase 1 (Homo sapiens) (UniProt O15530); details: at 10 µM
# [40] = molecular target: cAMP-dependent protein kinase catalytic subunit alpha (Homo sapiens) (UniProt P17612); details: at 1 µM
# [41] = molecular target: cAMP-dependent protein kinase catalytic subunit alpha (Homo sapiens) (UniProt P17612); details: at 10 µM
# [42] = molecular target: RAC-alpha serine/threonine-protein kinase (Homo sapiens) (UniProt P31749); details: at 1 µM
# [43] = molecular target: RAC-alpha serine/threonine-protein kinase (Homo sapiens) (UniProt P31749); details: at 10 µM
# [44] = molecular target: RAC-gamma serine/threonine-protein kinase (Homo sapiens) (UniProt Q9Y243); details: at 1 µM
# [45] = molecular target: RAC-gamma serine/threonine-protein kinase (Homo sapiens) (UniProt Q9Y243); details: at 10 µM
# [46] = molecular target: Protein kinase C alpha type (Homo sapiens) (UniProt P17252); details: at 1 µM
# [47] = molecular target: Protein kinase C alpha type (Homo sapiens) (UniProt P17252); details: at 10 µM
# [48] = molecular target: Protein kinase C beta type (Homo sapiens) (UniProt P05771); details: at 1 µM
# [49] = molecular target: Protein kinase C beta type (Homo sapiens) (UniProt P05771); details: at 10 µM
# [50] = molecular target: Protein kinase C beta type (Homo sapiens) (UniProt P05771); details: at 1 µM; remark: listed apart in the source
# [51] = molecular target: Protein kinase C beta type (Homo sapiens) (UniProt P05771); details: at 10 µM; remark: listed apart in the source
# [52] = molecular target: Protein kinase C gamma type (Homo sapiens) (UniProt P05129); details: at 1 µM
# [53] = molecular target: Protein kinase C gamma type (Homo sapiens) (UniProt P05129); details: at 10 µM
# [54] = molecular target: Protein kinase C delta type (Homo sapiens) (UniProt Q05655); details: at 1 µM
# [55] = molecular target: Protein kinase C delta type (Homo sapiens) (UniProt Q05655); details: at 10 µM
# [56] = molecular target: Protein kinase C epsilon type (Homo sapiens) (UniProt Q02156); details: at 1 µM
# [57] = molecular target: Protein kinase C epsilon type (Homo sapiens) (UniProt Q02156); details: at 10 µM
smiles,measurement,setting,value
O=C1Nc2ccc(-c3cccnc3)cc2/C1=C\c1ccc[nH]1,residual activity,[1],76%
same,residual activity,[2],105%
same,residual activity,[3],8%
same,residual activity,[4],2%
same,residual activity,[5],inactive: 90%
same,residual activity,[6],108%
same,residual activity,[7],inactive: 101%
same,residual activity,[8],inactive: 99%
same,residual activity,[9],75%
same,residual activity,[10],40%
same,residual activity,[11],86%
same,residual activity,[12],37%
same,residual activity,[13],68%
same,residual activity,[14],23%
same,residual activity,[15],66%
same,residual activity,[16],22%
same,residual activity,[17],64%
same,residual activity,[18],18%
same,residual activity,[19],40%
same,residual activity,[20],-1%
same,residual activity,[21],57%
same,residual activity,[22],20%
same,residual activity,[23],63%
same,residual activity,[24],26%
same,residual activity,[25],64%
same,residual activity,[26],5%
same,residual activity,[27],6%
same,residual activity,[28],1%
same,residual activity,[29],5%
same,residual activity,[30],0%
same,residual activity,[31],10%
same,residual activity,[32],6%
same,residual activity,[33],61%
same,residual activity,[34],93%
same,residual activity,[35],41%
same,residual activity,[36],71%
same,residual activity,[37],24%
same,residual activity,[38],6%
same,residual activity,[39],2%
same,residual activity,[40],61%
same,residual activity,[41],26%
same,residual activity,[42],96%
same,residual activity,[43],109%
same,residual activity,[44],68%
same,residual activity,[45],20%
same,residual activity,[46],87%
same,residual activity,[47],45%
same,residual activity,[48],93%
same,residual activity,[49],49%
same,residual activity,[50],83%
same,residual activity,[51],50%
same,residual activity,[52],67%
same,residual activity,[53],16%
same,residual activity,[54],54%
same,residual activity,[55],11%
same,residual activity,[56],69%
same,residual activity,[57],53%
